Assay results: publication doi:10.1101/2020.07.27.219501
No constants are given. Whether binding was seen depends on the method and setting. Binding seen in cells or lysates may run through a third protein. Some binding calls cover weakened binding; strength is not graded here.

Chains of the proteins cited; added tags and fusions are not shown. Lines headed by an entry give the natural chain unless they say otherwise; changes in a name come on top.
UniProt P61006: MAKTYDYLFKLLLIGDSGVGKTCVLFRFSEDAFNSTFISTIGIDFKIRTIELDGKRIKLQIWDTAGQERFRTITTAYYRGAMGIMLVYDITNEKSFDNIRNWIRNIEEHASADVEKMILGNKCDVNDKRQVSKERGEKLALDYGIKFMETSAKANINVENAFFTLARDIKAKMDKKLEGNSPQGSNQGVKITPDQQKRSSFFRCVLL

How the values were obtained:
3xFLAG-Rab8a WT = 3xFLAG-Rab8a WT (UniProt P61006); assay: co-IP
3xFLAG-Rab8a T72A = 3xFLAG-Rab8a T72A (UniProt P61006); assay: co-IP

- binding (3xFLAG-Rab8a WT): binds
- binding (3xFLAG-Rab8a T72A): binds
B1: Rabin8 (endogenous) (protein, UniProt Q96QF0 1-476)
chain: MGLKKMKGLSYDEAFAMANDPLEGFHEVNLASPTSPDLLGVYESGTQEQTTSPSVIYRPHPSALSSVPIQANALDVSELPTQPVYSSPRRLNCAEISSISFHVTDPAPCSTSGVTAGLTKLTTRKDNYNAEREFLQGATITEACDGSDDIFGLSTDSLSRLRSPSVLEVREKGYERLKEELAKAQRELKLKDEECERLSKVRDQLGQELEELTASLFEEAHKMVREANIKQATAEKQLKEAQGKIDVLQAEVAALKTLVLSSSPTSPTQEPLPGGKTPFKKGHTRNKSTSSAMSGSHQDLSVIQPIVKDCKEADLSLYNEFRLWKDEPTMDRTCPFLDKIYQEDIFPCLTFSKSELASAVLEAVENNTLSIEPVGLQPIRFVKASAVECGGPKKCALTGQSKSCKHRIKLGDSSNYYYISPFCRYRITSVCNFFTYIRYIQQGLVKQQDVDQMFWEVMQLRKEMSLAKLGYFKEEL
